Measurements reported in PubChem BioAssay AID1159578 (Peter MacCallum Cancer Centre, 2015)
Shown is a random part of about 18,000 reagents. About 1,030 of all reagents (5.7%) count as active. 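Inactive calls also include pools with fewer than 3300 nuclei, whose migration was not assessed.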 The raw values are shown without normalisation. The numbers tell different reagents against one gene apart. Not all columns of the deposit are shown.

- Aim: 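siRNA pools altering how lymphatic endothelial cells close a scratch wound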 (primary screen)
- Cell system: human lymphatic endothelial cells
- Reagents: siRNA pool against human genes, 40 nM
- Duration: 48 h after transfection
- Measurement: 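Cells stained with dye and imaged after a scratch; covered wound area and nuclei counted, duplicates averaged, migration set against mock wells and turned into a robust z-score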
- Reading the numbers: migration robust z-score: higher = faster migration into the scratch; nuclei per well: higher = more cells in the well
- Active means: 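Pools averaging fewer than 3300 nuclei are never called; remaining pools count as changed when migration robust z lies outside -2 to 2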
- Meaning of the calls: active = migration changed; inactive = no migration change, or too few cells

KIF23 scored migration robust z-score 2.49; nuclei per well, duplicate mean 3622; active. Silencing of AADACL4 resulted in: migration robust z-score -1.14; nuclei per well, duplicate mean 5740; inactive. OR4F4 gave migration robust z-score 0.84; nuclei per well, duplicate mean 7234; inactive. For IFNA13 the deposit lists migration robust z-score 0.88; nuclei per well, duplicate mean 6886; inactive. HOXC6 showed migration robust z-score 0.28; nuclei per well, duplicate mean 6056; inactive. GFOD1 #1 gave migration robust z-score -0.06; nuclei per well, duplicate mean 4950; inactive.

GFOD1 #2 gave migration robust z-score 0.22; nuclei per well, duplicate mean 5629; inactive. Knock-down of TMEM101 gave: migration robust z-score -1.16; nuclei per well, duplicate mean 6258; inactive. Knock-down of FBXW4 gave: migration robust z-score 0.73; nuclei per well, duplicate mean 4943; inactive. For CAPG, the entry reads migration robust z-score -0.32; nuclei per well, duplicate mean 5616; inactive. FBXO24 gave migration robust z-score -1.46; nuclei per well, duplicate mean 5417; inactive. After knock-down of C1QTNF2, the screen gave migration robust z-score 0.64; nuclei per well, duplicate mean 5338; inactive.

Silencing of PDCD10 came out at: migration robust z-score -0.44; nuclei per well, duplicate mean 5052; inactive. Depletion of CES3 came out at: migration robust z-score -0.55; nuclei per well, duplicate mean 6172; inactive. Knock-down of PI4K2A resulted in: migration robust z-score -2.54; nuclei per well, duplicate mean 4556; active. Against LOC652591 (retired record) the deposit lists migration robust z-score 1.74; nuclei per well, duplicate mean 4970; inactive. Silencing of SMPD2 came out at: migration robust z-score -0.26; nuclei per well, duplicate mean 3994; inactive. CCT8L1P scored migration robust z-score -0.7; nuclei per well, duplicate mean 5864; inactive.

Not a retest: entries from further up.
IFNA13 → migration robust z-score = 0.88; nuclei per well, duplicate mean = 6886; Outcome = inactive
HOXC6 → migration robust z-score = 0.28; nuclei per well, duplicate mean = 6056; Outcome = inactive
GFOD1 #1 → migration robust z-score = -0.06; nuclei per well, duplicate mean = 4950; Outcome = inactive
GFOD1 #2 → migration robust z-score = 0.22; nuclei per well, duplicate mean = 5629; Outcome = inactive

Continued:
Against ZEB1 the deposit lists migration robust z-score -1.03; nuclei per well, duplicate mean 5926; inactive. Against PIK3R1, the values are migration robust z-score 0.78; nuclei per well, duplicate mean 5730; inactive. GJA3 showed migration robust z-score -0.26; nuclei per well, duplicate mean 5764; inactive. After knock-down of NTSR1 the results were migration robust z-score -1.14; nuclei per well, duplicate mean 4883; inactive. Against AFAP1L2, the entry reads migration robust z-score -0.86; nuclei per well, duplicate mean 7159; inactive. XPNPEP1 gave migration robust z-score -1.22; nuclei per well, duplicate mean 6043; inactive.

With knock-down of MESP1, the record shows migration robust z-score -0.2; nuclei per well, duplicate mean 5458; inactive. HNRNPDL showed migration robust z-score 0.45; nuclei per well, duplicate mean 5671; inactive. After knock-down of TALDO1, the record shows migration robust z-score -0.54; nuclei per well, duplicate mean 6780; inactive.
